Assay results taken from patent publication US20230272082A1 (SENSEI BIOTHERAPEUTICS, published 2023).
These are yes or no findings as the source states them, for the method shown. Some entries that bind do so weakly or less than the wild type.

Sequences of proteins named here, by UniProt entry; tags and fusion partners are left off. Residues count along the entry.
UniProt Q9H7M9, residues 33-194: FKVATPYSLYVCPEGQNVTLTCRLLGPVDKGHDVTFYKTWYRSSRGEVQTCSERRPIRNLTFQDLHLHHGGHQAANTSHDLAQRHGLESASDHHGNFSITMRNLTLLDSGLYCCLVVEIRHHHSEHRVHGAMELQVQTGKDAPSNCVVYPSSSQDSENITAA

Biological target: T1, PSGL-1 on primary T-cells (human) (UniProt Q14242)
T1 sequence (looked up): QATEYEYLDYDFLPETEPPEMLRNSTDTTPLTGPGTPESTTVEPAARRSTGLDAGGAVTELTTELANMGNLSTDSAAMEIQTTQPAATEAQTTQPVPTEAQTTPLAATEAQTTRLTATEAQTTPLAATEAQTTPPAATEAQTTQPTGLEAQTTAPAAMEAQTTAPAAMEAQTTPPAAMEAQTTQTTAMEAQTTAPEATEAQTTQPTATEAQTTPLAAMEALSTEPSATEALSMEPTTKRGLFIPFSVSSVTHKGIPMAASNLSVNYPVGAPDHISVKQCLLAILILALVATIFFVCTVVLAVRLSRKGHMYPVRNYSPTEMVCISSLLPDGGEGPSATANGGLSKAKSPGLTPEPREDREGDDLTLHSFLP
Experiment: dextramer staining of primary T-cells at pH 6.0, flow cytometry (FIG. 4A)

binding: binds
Substance: VISTA-Dextramer-PE (from UniProt Q9H7M9 33-194)
